Drawing on article PMC5024086, “Fine-tuning of amino sugar homeostasis by EIIA^Ntr in Salmonella Typhimurium” (Scientific Reports, 2016), this text covers binding for one substance.

For this test, the target named is T1, GlmS tagged with His6 at its N-terminus (His6-GlmS), co-produced with EIIA^Ntr from pETDuet-glmS·ptsN (Salmonella Typhimurium) (UniProt Q8ZKX1).
T1 sequence: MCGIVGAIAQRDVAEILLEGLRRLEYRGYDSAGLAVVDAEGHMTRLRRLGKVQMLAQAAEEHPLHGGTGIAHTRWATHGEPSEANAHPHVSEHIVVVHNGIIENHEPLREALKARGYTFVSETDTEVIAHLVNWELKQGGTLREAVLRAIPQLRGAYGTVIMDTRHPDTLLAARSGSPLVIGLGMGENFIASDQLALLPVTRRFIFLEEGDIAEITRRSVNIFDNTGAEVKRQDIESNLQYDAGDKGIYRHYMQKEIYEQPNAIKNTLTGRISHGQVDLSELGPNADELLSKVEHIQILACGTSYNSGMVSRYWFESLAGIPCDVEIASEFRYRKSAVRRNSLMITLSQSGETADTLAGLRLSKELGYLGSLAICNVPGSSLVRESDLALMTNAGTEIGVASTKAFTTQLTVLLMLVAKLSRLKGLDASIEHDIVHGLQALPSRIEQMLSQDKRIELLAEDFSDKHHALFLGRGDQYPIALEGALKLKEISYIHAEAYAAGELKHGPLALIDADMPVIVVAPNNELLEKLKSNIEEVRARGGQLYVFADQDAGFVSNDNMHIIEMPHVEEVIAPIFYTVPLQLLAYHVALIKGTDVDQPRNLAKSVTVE
Nature of the test: pull-down; His6-GlmS and EIIA^Ntr co-produced in E. coli BL21 (DE3) from pETDuet-glmS·ptsN; extract on Ni-NTA resin, 20 mM Tris-HCl pH 8.0, 300 mM NaCl, eluted with 50–200 mM imidazole; SDS-PAGE, Coomassie.

Results are given in words; binding and its absence hold for the method and conditions named. Binding seen in cells or lysates may run through a third protein. Binding calls can cover weak binding; strength is not graded here. Sequences can lack the tags named with a protein.

“EIIA^Ntr co-produced with His6-GlmS from pETDuet-glmS·ptsN (Salmonella Typhimurium)”: the binding entry was “binds”.
